How the values were obtained:
GABAA receptor = conditions: 1 mM cold GABA
cortical astrocytes = conditions: read-out: astrocyte uptake IC50; data from Bolvig et al. 1999; cited from earlier work

NCCCC(=O)O [GABA, γ-aminobutyric acid]
inhibition of radioligand binding at GABAA receptors (GABAA receptor): inhibited radioligand binding as expected | IC50 (cortical astrocytes): 32 µM

— patent US8969413B2
